Test results as given in the supplement of paper PMC12889115.
Some of the results follow. Values are raw readings; no control value is given beside them.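 Primary screen: polymyxin B was added at a level permeabilizing Salmonella outer membranes while sparing inner membranes. DMSO wells, both with and without polymyxin B, established maximum growth. Plate-to-plate variation meant each plate was ranked on its own, and the lowest-OD600 compounds were selected as hits.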

Tested on: Salmonella enterica serovar Typhimurium SL1344
Assay: bacterial growth OD600 after 18 h with compound and polymyxin B; higher = more bacterial growth (less inhibition)
Conditions: 50 µM, Mueller-Hinton broth

Q: With `CCOc1cc(CN2Cc3ccccc3OC(C)C2)ccc1OC` (stereo not given) as the molecule, how does the “bacterial growth OD600” value (polymyxin B 0.75 µg/mL) read?
A: Its value is 0.788.

Q: `CC(C)NC(=O)C1CCCN(C2CCN(c3nc4ccccc4o3)CC2)C1` (stereo not given) was tested. Which “bacterial growth OD600” value (polymyxin B 0.75 µg/mL) did it give?
A: Its value is 0.802.

Q: With `O=C(c1cc(Cc2ccccc2Cl)no1)N1CCCC1c1nccs1` (stereo not given) as the molecule, how does the “bacterial growth OD600” value (polymyxin B 0.75 µg/mL) read?
A: Its value is 0.915.

Q: Which “bacterial growth OD600” value (polymyxin B 1 µg/mL) does the source give for `COCC(=O)N1CCC(Oc2ccc(C(=O)NCC[C@@H]3C[C@@H]4C=C[C@H]3C4)cc2)CC1` here?
A: Its value is 0.731.

Q: How did the “bacterial growth OD600” value (polymyxin B 1 µg/mL) turn out when `Cc1cc(C)n(Cc2cc(C(=O)N3CCN(C)C[C@@H]3C(C)C)n[nH]2)n1` was run?
A: Its value is 0.991.

Q: `CCOC(=O)C1(Cc2cccc(OC)c2)CCN(Cc2cccc3c2OCO3)CC1` was tested. Which “bacterial growth OD600” value (polymyxin B 1 µg/mL) did it give?
A: Its value is 0.758.

Q: Which “bacterial growth OD600” value (polymyxin B 1 µg/mL) does the source give for `CCCc1cc(C(=O)N2CCCC(N3CCN(c4ccccc4C)CC3)C2)n(C)n1` (stereo not given) here?
A: The value was 0.941.

Q: How did the “bacterial growth OD600” value (polymyxin B 1 µg/mL) turn out when `COc1cccc(CC2(CO)CCCN(Cc3cnn(-c4ccccc4)c3)C2)c1` (stereo not given) was run?
A: The value was 0.791.

Q: Which “bacterial growth OD600” value (polymyxin B 0.75 µg/mL) does the source give for `CC(C)c1nc2cc(C(=O)NCC3(c4ccccc4)CCOCC3)ccc2o1` here?
A: Its value is 0.826.

Q: How did the “bacterial growth OD600” value (polymyxin B 0.75 µg/mL) turn out when `COCc1c(C(=O)NCc2ccc(OC)c(OC)c2)cnn1-c1nccc(-c2cc(C)sc2C)n1` was run?
A: The value was 0.715.

Q: For `CCOc1ccccc1-c1nc(CN(C)C(C)c2nc(C)cs2)c(C)o1` (stereo not given), which “bacterial growth OD600” value (polymyxin B 0.75 µg/mL) is on record?
A: The value was 0.767.

Q: For `O=C(CC(F)(F)F)NC1CC(=O)N(Cc2cccc3ccccc23)C1` (stereo not given), which “bacterial growth OD600” value (polymyxin B 1 µg/mL) is on record?
A: Its value is 0.923.

Q: How did the “bacterial growth OD600” value (polymyxin B 1 µg/mL) turn out when `CC(C)(C)C(=O)Nc1ccnn1C1CCN(Cc2c[nH]c3ccccc23)CC1` was run?
A: The value was 0.895.

Q: For `CN(Cc1ccccc1)C1(C(=O)NCCc2c[nH]cn2)Cc2ccccc2C1`, which “bacterial growth OD600” value (polymyxin B 0.75 µg/mL) is on record?
A: The value was 0.

Q: How did the “bacterial growth OD600” value (polymyxin B 0.75 µg/mL) turn out when `O=C(Cc1ccccc1F)Nc1ccc2c(c1)CN(C(=O)Cc1cccnc1)CC2` was run?
A: Its value is 0.759.

Q: How did the “bacterial growth OD600” value (polymyxin B 1 µg/mL) turn out when `O=C1CC(NS(=O)(=O)c2ccsc2)CN1C1CCCCCC1` (stereo not given) was run?
A: Its value is 0.895.

Q: How did the “bacterial growth OD600” value (polymyxin B 0.75 µg/mL) turn out when `Cc1oc(-c2ccc(NC(=O)Cc3ccccc3)cc2)nc1CNC(=O)c1ccc2ccccc2n1` was run?
A: Its value is 0.771.

Q: Which “bacterial growth OD600” value (polymyxin B 0.75 µg/mL) does the source give for `CSc1ccc(CC2(CCC(=O)N3CCCC(COc4ccccc4F)C3)CCC(=O)N2)cc1` (stereo not given) here?
A: The value was 0.703.

Q: How did the “bacterial growth OD600” value (polymyxin B 0.75 µg/mL) turn out when `O=C(C#Cc1ccccc1)N1CCC(C2(Cc3ccc(F)cc3)NC(=O)N(C3CCOC3)C2=O)CC1` (stereo not given) was run?
A: The value was 0.082.

Q: With `COc1ccc(C(=O)N2CCCC2)c(OC2CCN(Cc3ccc(C)c(C)c3)CC2)c1` as the molecule, how does the “bacterial growth OD600” value (polymyxin B 1 µg/mL) read?
A: Its value is 1.15.
